The target in assay [1] is T1, GST.TNPO3.ΔCargo(1-501) (human) (UniProt Q9Y5L0).
T1 sequence: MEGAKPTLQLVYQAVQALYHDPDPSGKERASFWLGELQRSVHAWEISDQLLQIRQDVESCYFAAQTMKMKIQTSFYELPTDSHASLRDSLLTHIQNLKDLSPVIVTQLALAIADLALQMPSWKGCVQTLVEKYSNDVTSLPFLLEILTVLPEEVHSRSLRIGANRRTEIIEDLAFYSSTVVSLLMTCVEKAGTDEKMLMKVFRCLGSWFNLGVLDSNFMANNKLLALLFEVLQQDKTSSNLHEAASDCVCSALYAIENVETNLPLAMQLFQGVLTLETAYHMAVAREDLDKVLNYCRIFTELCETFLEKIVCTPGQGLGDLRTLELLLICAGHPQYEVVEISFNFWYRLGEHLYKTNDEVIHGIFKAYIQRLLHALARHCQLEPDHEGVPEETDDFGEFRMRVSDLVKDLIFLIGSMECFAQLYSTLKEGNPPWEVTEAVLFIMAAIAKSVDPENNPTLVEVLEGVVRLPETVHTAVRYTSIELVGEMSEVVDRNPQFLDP
Description: pull-down.

In assay [2] the target is T2, GST-TNPO3 (human transportin-3, from pGEX6P3.hTNPO3) (human) (UniProt Q9Y5L0).
T2 sequence: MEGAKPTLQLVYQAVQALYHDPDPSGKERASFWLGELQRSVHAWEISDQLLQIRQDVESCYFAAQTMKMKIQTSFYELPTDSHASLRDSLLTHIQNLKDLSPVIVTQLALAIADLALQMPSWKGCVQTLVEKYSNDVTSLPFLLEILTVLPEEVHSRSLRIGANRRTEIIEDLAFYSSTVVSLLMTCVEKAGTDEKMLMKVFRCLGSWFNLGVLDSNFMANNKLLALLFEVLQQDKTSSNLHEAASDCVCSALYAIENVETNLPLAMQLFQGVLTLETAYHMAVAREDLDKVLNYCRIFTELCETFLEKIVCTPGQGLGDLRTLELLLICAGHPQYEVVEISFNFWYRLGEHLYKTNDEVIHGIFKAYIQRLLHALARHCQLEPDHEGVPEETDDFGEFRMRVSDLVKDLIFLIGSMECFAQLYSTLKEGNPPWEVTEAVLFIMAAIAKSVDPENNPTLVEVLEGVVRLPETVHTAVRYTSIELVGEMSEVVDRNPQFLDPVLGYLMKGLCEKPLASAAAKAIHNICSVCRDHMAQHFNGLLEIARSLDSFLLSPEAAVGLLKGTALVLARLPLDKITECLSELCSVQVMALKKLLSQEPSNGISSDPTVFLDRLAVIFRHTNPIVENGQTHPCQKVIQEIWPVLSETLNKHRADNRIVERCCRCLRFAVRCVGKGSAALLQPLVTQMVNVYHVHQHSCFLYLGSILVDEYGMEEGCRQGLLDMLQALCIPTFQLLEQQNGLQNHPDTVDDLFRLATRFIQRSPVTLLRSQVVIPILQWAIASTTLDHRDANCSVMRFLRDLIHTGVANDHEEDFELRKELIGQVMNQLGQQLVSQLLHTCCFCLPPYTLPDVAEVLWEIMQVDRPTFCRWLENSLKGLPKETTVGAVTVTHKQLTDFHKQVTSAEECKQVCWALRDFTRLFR
Description: pull-down.

No constants are given. Whether binding was seen depends on the method and setting. Binding can be weak; no strength is given. Tags and fused reporters may be left off the sequences shown.

Regarding “Gag.ΔSPΔNC (Rous sarcoma virus) (domain or fragment)”, the binding result in assay [1] and in assay [2] was “binds weakly” throughout.
On to “MA.p2.p10.CA-NTD (Rous sarcoma virus) (domain or fragment)”, for which the binding result in assay [1] and in assay [2] was “binds weakly” throughout.
With “ΔMBD.Gag (Rous sarcoma virus) (domain or fragment)”, the binding result in assay [1] and in assay [2] was “binds weakly” in each case.
